Consider 41 compounds from PubChem BioAssay AID493014 (National Center for Advancing Translational Sciences (NCATS), 2011).

Some of the results follow. Shown are side measurements of this screen, not its main read-out; they come without a call. Compounds called inactive in the main read-out are mostly missing here. Potencies come from curve fits of mixed quality, noted in brackets.

The assay in a line: qHTS Assay to Find Inhibitors of Chronic Active B-Cell Receptor Signaling. The conditions noted are these: ABC-DLBCL IkBa-CBG/CBR reporter, luminescence ratio (green luciferase fused to IkBa over red control in TMD8 lymphoma cells), 4 h. Summed up:
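TMD8 ABC-DLBCL cells carrying doxycycline-inducible green luciferase fused to IkappaBalpha plus unfused red luciferase were exposed to compounds (up to 46 uM) for 4 hrs at 37C. Activity came from the overlap-corrected green/red luminescence ratio.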
Background: In qHTS, concentration-response curves come from the screen itself.

The mark [1] stands for this setting: measured here: CBR red luminescence, cell number.
[2] abbreviates: measured here: IkBa-CBG green luminescence.

Regarding `CCOC(=O)CNC(=O)N1CCC(CCC(=O)N(C)Cc2ccccc2)CC1`, the AC50 under setting [1] was 3.55 µM [rising, partial curve, poor fit].
The same measure, in the same setting: the same measure for `COc1ccc(-c2nonc2NC(=O)c2oc3ccc(F)cc3c2C)cc1OC`: 3.98 µM [rising, single point].
Consider `CN1CCN(c2ccc(Cl)cc2NC(=O)C2COc3ccccc3O2)CC1` (stereo not drawn), for which, under setting [1], the AC50 was 25.1 µM [falling, single point].
Same read-out and setting: the same measure for `O=C(NNC(=O)c1cccs1)Nc1cccc(Cl)c1`: 35.5 µM [falling, single point].
Still for that read-out and setting: with `CCC(C)NC(=O)c1ccc(CSCc2cccc(F)c2)o1` (stereo not drawn) the figure was 29.1 µM [rising, single point]; with `Cc1nc2cc(NC(=O)NCc3ccccc3)ccc2o1`, 11.2 µM [falling, partial curve, poor fit].
Regarding `CCN(CC)CCNC(=O)Cc1c(C(=O)O)n(CC)c2ccccc12`, the AC50 under setting [1] was 6.51 µM [rising, single point].
Still for that read-out and setting: the same measure for `NC(=O)SCC(=O)Nc1ccccc1C(=O)O`: 35.5 µM [falling, single point]; for `CCOc1ccc(S(=O)(=O)N2CCCC(C(=O)NC3CC3)C2)cc1Cl` (stereo not drawn): 0.206 µM [falling, full curve].
On the same count and under the same terms, with `CCCc1ccc2oc(C(=O)N(C)Cc3nccs3)c(C)c2c1` the figure was 1.78 µM [rising, full curve].
For the compound `Cc1ccc(S(=O)(=O)CNC(=S)c2cccc(Cl)c2)cc1`, the half-maximal activity concentration (AC50) under setting [2] is 29.1 µM [falling, single point].
`O=C(C(=O)N1CCN(c2ccccc2)CC1)c1c[nH]c2ccccc12`: the AC50 under setting [1] is 12.6 µM [falling, partial curve].
Consider `COC(=O)c1cc(=O)n(-c2ccccc2)c(=Nc2ccccc2)s1`, for which the AC50 under setting [1] was 14.6 µM [falling, partial curve, poor fit].
In the case of `COc1ccc(S(=O)(=O)N(C)CC(=O)N2CCCC2)cc1Cl`, the AC50 under setting [1] is 35.5 µM [rising, single point].
Regarding `CC(C)Cn1c(-c2ccccc2)nc(=S)c2c1CCCC2`, the AC50 runs as follows: under setting [1], 3.66 µM [falling, single point]; under setting [2], 6.51 µM [rising, partial curve, poor fit].
As for `CCc1cccc(C)c1NC(=O)CCOc1ccccc1`, the AC50 under setting [1] is 20 µM [rising, partial curve, poor fit].
On the same count and under the same terms, with `Cc1cccc(Nc2nnc(SCC(=O)NC3CCCc4ccccc43)s2)c1C` (stereo not drawn) the figure was 29.1 µM [falling, single point].
Same read-out and setting: the same measure for `Cc1ccc([N+](=O)[O-])c(OCCN2CCC(Cc3ccccc3)CC2)c1`: 11.2 µM [falling, partial curve]; for `COC(=O)[C@@H]1Cc2c([nH]c3ccccc23)C(C)N1C(=O)c1ccccc1` (stereo partly drawn): 35.5 µM [falling, single point].
`Cc1cccc(C)c1OCC(O)CNS(=O)(=O)c1ccccc1C(=O)N1CCOCC1` (stereo not drawn): the AC50 under setting [2] was 0.461 µM [falling, full curve].
Regarding `CC(C)C[C@H]1C(=O)N2CCC[C@H]2[C@]2(O)O[C@](NC(=O)[C@@H]3C=C4c5cccc6[nH]c(Br)c(c56)CC4N(C)C3)(C(C)C)C(=O)N12` (stereo partly drawn), the concentration at half-maximal activity (AC50) under setting [1] is 8.91 µM [falling, partial curve].
The same measure, in the same setting: with `Cc1ccc(-c2nn(CC(=O)NN3CCOCC3)c(=O)c3ccccc23)cc1` the figure was 1.12 µM [falling, partial curve, poor fit].
On to `CCOC(=O)C1CCN(C(=O)COc2cccc(C)c2)CC1`, for which the AC50 under setting [1] was 20.6 µM [falling, partial curve].
As for `Cc1ccc(-n2nc(C)c3c(C)c(CCC(=O)NCc4ccccc4)c(C)nc32)cc1`, the AC50 under setting [1] was 23.1 µM [falling, single point].
Same read-out and setting: the same measure for `CCOC(=O)c1c(N)sc2c(NC(C)=O)cccc12`: 0.501 µM [falling, full curve, poor fit].
Still for that read-out and setting: the same measure for `CN(C)CCNC(=O)C1CCN(Cc2cc3ccccc3n2Cc2ccccc2)CC1`: 20 µM [falling, partial curve]; for `COc1cccc(Nc2nc3ccccc3n3cnnc23)c1`: 35.5 µM [falling, single point]; for `O=C1C=C(NCCN2CCOCC2)C(=O)c2cnccc21`: 16.4 µM [falling, partial curve].
The same measure, in the same setting: with `COc1cc([N+](=O)[O-])c(OC)cc1SCc1n[nH]c(=S)n1-c1ccc(F)cc1` the figure was 2.51 µM [rising, full curve, poor fit]; with `C=COCCCNc1ncnc2sc(-c3ccccc3)cc12`, 6.31 µM [falling, full curve, poor fit]; with `Cc1cc(C(=O)COC(=O)c2ccccc2NCCO)c(C)n1CC1CCCO1` (stereo not drawn), 8.91 µM [falling, partial curve].
As to `Cc1ccc2oc(Nc3nc(C)c(C)c(C)n3)nc2c1`, the AC50 under setting [1] is 0.447 µM [rising, full curve, poor fit].
As to `COc1ccc(-n2ncc3c(NC4CCCC4)ncnc32)cc1`, the AC50 under setting [1] was 11.2 µM [falling, single point].
Same read-out and setting: with `CCC(C)c1ccc(OCC(=O)NNC(=O)C2CCCCC2)cc1` (stereo not drawn) the figure was 0.562 µM [falling, partial curve, poor fit].
Regarding `CCOC(=O)c1c(NC(=O)CSc2nnc(C)c(=O)[nH]2)sc2c1CCCC2`, the AC50 under setting [1] is 5.17 µM [falling, full curve] and the AC50 under setting [2] was 6.51 µM [rising, partial curve, poor fit].
Take `Cc1ccn2cc(C(=O)N3CCCC(Nc4ccc(F)cc4)C3)nc2c1` (stereo not drawn): the AC50 under setting [1] was 7.94 µM [rising, partial curve].
Still for that read-out and setting: the same measure for `CC(C)(C)NC(=O)NC(=O)CSc1cccc(C(F)(F)F)c1`: 0.112 µM [falling, full curve, poor fit]; for `C=CCc1cccc(/C=N/NC(=O)C(=O)Nc2ccc(C)cc2)c1O`: 22.4 µM [falling, single point]; for `CCn1cc(CN2CCCC(C(=O)Nc3cccc(-c4cc5ccccc5[nH]4)c3)C2)cn1` (stereo not drawn): 22.4 µM [falling, single point].
In the case of `Cc1cc(C)cc(-n2c(C)cc(C(=S)N3CCOCC3)c2C)c1`, under setting [2], the AC50 was 29.1 µM [rising, partial curve, poor fit].
Regarding `O=S(=O)(NCC(c1cccnc1)N1CCOCC1)c1ccccc1` (stereo not drawn), the AC50 under setting [1] was 6.31 µM [rising, full curve, poor fit].

As a reminder, the AC50 is the concentration at which the activity in the assay is half-maximal.
